From PMC4254994 (PLoS ONE, 2014)
No constants are given. Whether binding was seen depends on the method and setting. Some binding calls cover weakened binding; strength is not graded here.

Sequences of proteins named here, by UniProt entry; tags and fusion partners are left off.
UniProt A0R5Z0: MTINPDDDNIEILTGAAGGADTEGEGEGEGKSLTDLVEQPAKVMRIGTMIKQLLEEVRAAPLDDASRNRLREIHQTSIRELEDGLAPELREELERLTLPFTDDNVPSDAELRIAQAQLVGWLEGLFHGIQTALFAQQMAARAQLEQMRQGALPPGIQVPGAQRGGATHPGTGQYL

Key:
[1] = target: T18-MsmPrcA (Msmeg_3894, proteasome α-subunit of Mycobacterium smegmatis) (Mycobacterium smegmatis MC2-155) (UniProt A0QZ46); experiment: two-hybrid
[2] = target: T18-MsmΔ7PrcA (open-gate variant of the M. smegmatis proteasome α-subunit) (Mycobacterium smegmatis MC2-155) (UniProt A0QZ46); experiment: two-hybrid

Substance: T25-MsmBpa (Msmeg_6365, Bpa homolog of Mycobacterium smegmatis) (from UniProt A0R5Z0 1-175)
- binding [1]: binds
- binding [2]: binds
